Reference: US20030022345A1
Results are given in words; binding and its absence hold for the method and conditions named. For part of these data: Binding seen in cells or lysates may run through a third protein. Some results given as binding are weak or reduced against the parent protein; the word gives no strength. Sequences can lack the tags named with a protein.

Amino acid sequences for entries named in this document (tags omitted). Residues count along the entry.
UniProt P60842, residues 2-406: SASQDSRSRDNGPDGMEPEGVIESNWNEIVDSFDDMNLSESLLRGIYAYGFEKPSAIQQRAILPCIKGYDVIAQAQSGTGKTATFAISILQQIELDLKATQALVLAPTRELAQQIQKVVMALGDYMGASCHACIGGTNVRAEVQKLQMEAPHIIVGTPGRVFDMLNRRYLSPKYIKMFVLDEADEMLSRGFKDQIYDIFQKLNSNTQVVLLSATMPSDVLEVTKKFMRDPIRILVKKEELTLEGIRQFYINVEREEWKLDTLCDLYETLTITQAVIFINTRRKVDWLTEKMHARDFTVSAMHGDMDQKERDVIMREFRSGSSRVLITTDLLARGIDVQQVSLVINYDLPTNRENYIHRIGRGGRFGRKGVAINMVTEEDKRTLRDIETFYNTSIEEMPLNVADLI

Legend:
[1] = target: eIF4A (endogenous in HeLa cells) (human (HeLa cells)) (UniProt P60842); assay: heading of the results
[2] = target: eIF4A (endogenous in HeLa cells) (human (HeLa cells)) (UniProt P60842); assay: summary in the discussion
[3] = target: eIF4A (endogenous in HeLa cells) (human (HeLa cells)) (UniProt P60842); assay: anti-HA co-immunoprecipitation from HeLa extracts, Western blot

Measured: binding

B1: HA-tagged p97 (N-terminal three copies of HA; pcDNA3-HA-p97) (protein, not shown: small tags and cut ends)
chain: VESAIAEGGASRFSASSGGGGSRGAPQHYPKTAGNSEFLGKTPGQNAQKWIPARSTRRDDNSAANNSANEKERHDAIFRKVRGILNKLTPEKFDKLCLELLNVGVESKLILKGVILLIVDKALEEPKYSSLYAQLCLRLAEDAPNFDGPAAEGQPGQKQSTTFRRLLISKLQDEFENRTRNVDVYDKRENPLLPEEEEQRAIAKIKMLGNIKFIGELGKLDLIHESILHKCIKTLLEKKKRVQLKDMGEDLECLCQIMRTVGPRLDHERAKSLMDQYFARMCSLMLSKELPARIRFLLQDTVELREHHWVPRKAFLDNGPKTINQIRQDAVKDLGVFIPAPMAQGMRSDFFLEGPFMPPRMKMDRDPLGGLADMFGQMPGSGIGTGPGVIQDRFSPTMGRHRSNQLFNGHGGHIMPPTQSQFGEMGGKFMKSQGLSQLYHNQSQGLLSQLQGQSKDMPPRFSKKGQLNADEISLRPAQSFLMNKNQVPKLQPQITMIPPSAQPPRTQTPPLGQTPQLGLKTNPPLIQEKPAKTSKKPPPSKEELLKLTETVVTEYLNSGNANEAVNGVREMRAPKHFLPEMLSKVIILSLDRSDEDKEKASSLISLLKQEGIATSDNFMQAFLNVLDQCPKLEVDIPLVKSYLAQFAARAIISELVSISELAQPLESGTHFPLFLLCLQQLAKLQDREWLTELFQQSKVNMQKMLPEIDQNKDRMLEILEGKGLSFLFPLLKLEKELLKQIKLDPSPQTIYKWIKDNISPKLHVDKGFVNILMTSFLQYISSEVNPPSDETDSSSAPSKEQLEQEKQLLLSFKPVMQKFLHDHVDLQVSALYALQVHCYNSNFPKGMLLRFFVHFYDMEIIEEEAFLAWKEDITQEFPGKGKALFQVNQWLTWLETAEEEESEEEAD
binds: all assays above
